Assay results published in publication doi:10.1101/2024.07.03.601885.
These are yes or no findings as the source states them, for the method shown. Binding seen in cells or lysates may run through a third protein. Binding can be weak; no strength is given.

Amino acid sequences for entries named in this document (tags omitted). A change or cut given only in a name is not applied to a line headed by its entry.
UniProt Q9Z148, whole entry, stated change not applied: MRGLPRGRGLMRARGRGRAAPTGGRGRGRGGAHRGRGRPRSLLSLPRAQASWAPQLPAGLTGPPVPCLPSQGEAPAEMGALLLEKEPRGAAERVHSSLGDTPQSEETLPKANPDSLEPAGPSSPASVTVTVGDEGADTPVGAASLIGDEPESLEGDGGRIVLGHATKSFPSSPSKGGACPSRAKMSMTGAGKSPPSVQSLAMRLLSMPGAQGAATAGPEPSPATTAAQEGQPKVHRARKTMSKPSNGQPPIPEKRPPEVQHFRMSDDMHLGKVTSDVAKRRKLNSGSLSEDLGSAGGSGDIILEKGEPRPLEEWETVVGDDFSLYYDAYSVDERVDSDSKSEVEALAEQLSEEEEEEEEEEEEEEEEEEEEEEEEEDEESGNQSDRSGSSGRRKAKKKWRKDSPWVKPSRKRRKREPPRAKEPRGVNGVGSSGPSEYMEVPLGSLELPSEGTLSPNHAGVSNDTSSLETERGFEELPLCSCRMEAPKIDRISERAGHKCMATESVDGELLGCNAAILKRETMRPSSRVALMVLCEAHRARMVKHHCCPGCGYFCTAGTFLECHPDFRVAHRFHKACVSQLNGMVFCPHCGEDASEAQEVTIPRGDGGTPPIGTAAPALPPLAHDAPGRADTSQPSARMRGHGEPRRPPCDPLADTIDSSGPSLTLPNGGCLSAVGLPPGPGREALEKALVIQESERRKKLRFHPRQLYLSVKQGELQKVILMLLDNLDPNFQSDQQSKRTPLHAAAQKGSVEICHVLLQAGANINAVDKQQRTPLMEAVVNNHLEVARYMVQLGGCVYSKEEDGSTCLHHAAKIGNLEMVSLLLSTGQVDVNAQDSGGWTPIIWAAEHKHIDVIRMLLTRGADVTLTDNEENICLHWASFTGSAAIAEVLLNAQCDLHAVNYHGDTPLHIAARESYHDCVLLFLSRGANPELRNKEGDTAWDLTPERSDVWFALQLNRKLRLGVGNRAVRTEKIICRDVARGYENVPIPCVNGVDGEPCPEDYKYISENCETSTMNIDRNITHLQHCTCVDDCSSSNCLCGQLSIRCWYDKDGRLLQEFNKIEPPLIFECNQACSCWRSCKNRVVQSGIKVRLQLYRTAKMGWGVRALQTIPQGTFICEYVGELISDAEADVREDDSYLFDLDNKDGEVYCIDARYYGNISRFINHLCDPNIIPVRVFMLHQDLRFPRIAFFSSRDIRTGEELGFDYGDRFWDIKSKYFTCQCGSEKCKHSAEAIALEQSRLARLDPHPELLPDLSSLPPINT

Target: HA-tagged G9a (UniProt Q9Z148)
Test: co-IP

- binding: binds
Substance: mCherry-NPM1ΔDBD (from UniProt Q61937)
